Source: PubChem BioAssay AID743266 (National Center for Advancing Translational Sciences (NCATS), 2014)
Among all 410,000 compounds or so, about 310 (0.076%) were called active. Inconclusive means that the source gave no clear call. Such entries were picked first, then a sample of the others. Calls follow the shape of the dose curve; as a rule, active = well fitted activation curve with a large enough effect; inconclusive = small, poorly fitted or top-dose-only effect, or another doubt; inactive = no such curve, though single readings can be large or run the other way. Where the call is inconclusive, the potency comes from a doubtful curve fit.

Protein sequences, listed by entry. Tags and fused reporters are not part of them. Lines headed by an entry give the natural chain unless they say otherwise; changes in a name come on top.
UniProt Q03431: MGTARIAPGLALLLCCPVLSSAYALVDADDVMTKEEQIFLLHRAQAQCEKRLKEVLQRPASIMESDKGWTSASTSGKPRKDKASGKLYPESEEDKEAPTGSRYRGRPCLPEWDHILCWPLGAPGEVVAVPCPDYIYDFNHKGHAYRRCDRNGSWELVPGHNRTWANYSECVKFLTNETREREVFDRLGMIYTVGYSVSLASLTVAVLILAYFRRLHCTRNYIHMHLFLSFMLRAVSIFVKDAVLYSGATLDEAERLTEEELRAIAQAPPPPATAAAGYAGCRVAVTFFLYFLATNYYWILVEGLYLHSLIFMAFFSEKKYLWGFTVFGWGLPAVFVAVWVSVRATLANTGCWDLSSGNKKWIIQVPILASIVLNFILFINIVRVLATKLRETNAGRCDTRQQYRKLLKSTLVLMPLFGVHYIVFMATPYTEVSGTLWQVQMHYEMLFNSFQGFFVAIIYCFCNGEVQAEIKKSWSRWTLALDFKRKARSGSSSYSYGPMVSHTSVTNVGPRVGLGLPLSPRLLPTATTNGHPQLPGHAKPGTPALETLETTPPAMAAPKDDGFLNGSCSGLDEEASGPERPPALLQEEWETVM

target: Parathyroid hormone/parathyroid hormone-related peptide receptor (Homo sapiens) (UniProt Q03431); assay: qHTS for PTHR1 Agonists: Primary Screen; details: HEK293 GP2 PTHR1 cells, GloSensor cAMP luminescence, 1 h; activation: at 115 µM (top of the series) unless noted; series mostly up to 115 µM; also: nearly all actives have a fitted effect of over 55% in size
Procedure, shortened: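 HEK-293-derived GP2 cells expressing PTHR1 and a GloSensor cAMP reporter, 3,000/well, plated overnight, given luciferin plus IBMX (each 0.5 mM as added) for 1 h at 37 °C, then compound for 1 h at 37 °C. Luminescence was read after 15 min at room temperature.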
Potency is read from the fitted curve at half-maximal effect.

Potency, inconclusive:
O=C(c1ccccc1OC(F)F)N1CCN(S(=O)(=O)c2ccc3c(c2)OCCCO3)CC1 17.8 µM [activator, partial curve]
O=C(CCC(=O)Nc1ccccc1)NNC(=O)c1ccco1 56.2 µM [activator, single point]
CCOC(=O)COc1ccc(S(=O)(=O)Nc2ccc3c(c2)OCO3)cc1 0.544 µM [activator, full curve, poor fit]
CC(C)(C)NC(=O)CN(Cc1cccs1)C(=O)c1csnn1 3.98 µM [activator, single point]
O=C(/C=N\O)NCCCNCc1ccccc1 10 µM [activator, single point]
CCC1CCCCN1C(=O)CSc1nc(N)cc(N)n1 (stereo unspecified) 141 µM [activator, single point]
CC(C)C(=O)NC1CC(=O)N(c2ccc3c(c2)OCCO3)C1 (stereo unspecified) 141 µM [activator, single point]
O=c1cc2ncc(-c3[nH]ncc3[N+](=O)[O-])cn2[nH]1 126 µM [activator, single point]

Potency, inactive:
CCCCN(C)C(=O)Cn1cnc2sc(C)c(S(=O)(=O)N3CCC(C)CC3)c2c1=O
Nc1c(C(=O)c2ccccc2)sc2nsc(SCCN3CCOCC3)c12
COc1ccc(-c2nc(CSc3nncn4c3cc3oc(C)cc34)c(C)o2)cc1
CCn1cc(C(c2ccccc2)C(C(C)=O)[N+](=O)[O-])c2ccccc21 (stereo unspecified)
O=C(CN1CCCCC1)NNC(=O)c1cccc(Br)c1
COc1ccc(NC(=O)c2c(NCc3cccs3)sc3c2CCCCC3)cc1
CCCc1ccc(-c2c(C)sc(N)c2C#N)cc1
CC(C)CC1Nc2ncnc(N3CCN(c4ccccn4)CC3)c2N(Cc2ccc(Br)cc2)C1=O (stereo unspecified)

3 compounds out of the list, arranged by formula weight, largest number first:
Potency, inactive:
CCCCN(C)C(=O)Cn1cnc2sc(C)c(S(=O)(=O)N3CCC(C)CC3)c2c1=O
COc1ccc(NC(=O)c2c(NCc3cccs3)sc3c2CCCCC3)cc1
CCCc1ccc(-c2c(C)sc(N)c2C#N)cc1

Next part.

activation, inconclusive:
COc1ccc(NC(=O)CN(c2ccc(OC)c(Cl)c2)S(=O)(=O)c2ccccc2)cc1 -92.5% [activator]
O=C(O)CCC(=O)NNC(=O)c1ccc(-c2ccccc2)cc1 -6.28% [activator]
O=C1c2ccccc2NC(c2ccc(O)cc2)N1Cc1ccco1 (stereo unspecified) 1.49% [activator] [at 57.5 µM]
O=C(NCCc1ccc(Cl)cc1)C(=O)NCC(c1ccco1)S(=O)(=O)c1ccccc1 (stereo unspecified) 33.7% [activator]
Cc1ccc(NC(=O)C2(c3ccccc3)CCOCC2)cc1 37.7% [activator]
